# Results from one PubChem assay

The results are deposited in PubChem (AID912; NCATS, 2007).

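Uptake of anthrax lethal toxin into cultured cells, read by FRET (460/530 nm ratio) and reported from the 460 nm channel; the cell line is not named here.
Each compound was tested as a concentration series from about 0.0005 to 40 µM.
The number is the fitted AC50 of the 460 nm signal alone; lower values mean a more potent effect. A falling signal goes with compounds filed as inhibitors or cytotoxic, a rising one with activators or fluorescent compounds (inferred from the filed classes).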

Values are in µM.
Common to all entries: measured here: 460 nm channel.
This is a side read-out of the assay, for part of the compounds, not drawn at random.
Potencies fitted to partial, single-point or poorly fitting curves are rough.
The first word of each remark tells which way the curve ran; it can be opposite to the aim of the assay.

{"structure": "Oc1c(Cl)cc(Cl)c2c1NCCC2", "AC50 (µM)": "3.981", "curve": "falling, full curve"}
{"structure": "O=P(O)(O)CCP(=O)(O)O", "AC50 (µM)": "3.981", "curve": "falling, single point"}
{"structure": "O=C(c1cnccn1)N1CCC[C@@]2(CCN(Cc3ccncc3)C2)C1", "AC50 (µM)": "5.012", "curve": "falling, single point"}
{"structure": "COc1cccc(C(=O)Nc2c(C(N)=O)oc3ccccc23)c1", "AC50 (µM)": "10", "curve": "falling, partial curve"}
{"structure": "CCNc1ncc2nc(-c3ccc(F)cc3)c(=O)n(CCC#N)c2n1", "AC50 (µM)": "3.162", "curve": "rising, partial curve"}
{"structure": "Cc1cccc(NC(=O)CN2C(=O)COc3ccc(Cl)cc32)c1C", "AC50 (µM)": "12.59", "curve": "falling, partial curve, poor fit"}
{"structure": "Cn1c(=O)n(C/C=C/c2ccccc2)c(=O)c2c1nc1n2CCCN1Cc1ccccc1", "AC50 (µM)": "2.512", "curve": "rising, full curve, poor fit"}
{"structure": "O=C(Nc1ccn(-c2ccccc2)n1)c1ccc(S(=O)(=O)N2CCCCCC2)cc1", "AC50 (µM)": "15.85", "curve": "falling, partial curve, poor fit"}
{"structure": "COc1ccc(C(c2nnnn2Cc2ccccc2)N2CCN(c3ccccc3)CC2)cc1", "stereo": "centres unmarked", "AC50 (µM)": "31.62", "curve": "falling, single point"}
{"structure": "C#CCOC(=O)c1ccccc1C(=O)OCC#C", "AC50 (µM)": "5.012", "curve": "falling, partial curve"}
{"structure": "Cc1ccc2[nH]c(=O)c(C(c3nnnn3CC3CCCO3)N3CCCc4ccccc43)cc2c1", "stereo": "centres unmarked", "AC50 (µM)": "15.85", "curve": "falling, single point"}
{"structure": "COc1ccc(C2(O)CC3CCC(C2)N3c2cc(C)nc(-c3ccccc3)n2)cc1", "stereo": "centres unmarked", "AC50 (µM)": "3.981", "curve": "falling, full curve, poor fit"}
{"structure": "ClC1=C(Cl)C2(Cl)C3C4CC(C5OC45)C3C1(Cl)C2(Cl)Cl", "stereo": "centres unmarked", "AC50 (µM)": "25.12", "curve": "falling, partial curve"}
{"structure": "NCCNc1cccc2ccccc12", "AC50 (µM)": "31.62", "curve": "falling, single point"}
{"structure": "CCN(CC)c1ccc(-c2nn3c(-c4n[nH]c5c4CCC5)nnc3s2)cc1", "AC50 (µM)": "15.85", "curve": "falling, partial curve"}
{"structure": "CCOC(=O)c1cnc2cc3c(cn2c1=O)CCCC3", "AC50 (µM)": "3.981", "curve": "falling, partial curve"}
{"structure": "O=C(Nc1ccc2c(c1)OCCO2)c1c(F)c(F)c(F)c(F)c1F", "AC50 (µM)": "5.012", "curve": "rising, partial curve"}
{"structure": "COc1ccc(-n2c(=O)c(-c3cc(F)cc(F)c3)nc3cnc(N4CCOCC4)nc32)cc1", "AC50 (µM)": "2.512", "curve": "rising, full curve"}
{"structure": "O=C1c2ccccc2C(Nc2ccc3c(c2)OCCO3)N1c1ccc(Cl)cn1", "stereo": "centres unmarked", "AC50 (µM)": "31.62", "curve": "falling, partial curve"}
{"structure": "C[C@H](CCC(=O)O)[C@H]1CC[C@]2(C)[C@@H]3C(=O)C[C@H]4C(C)(C)[C@@H](O)CC[C@]4(C)[C@H]3C(=O)C[C@@]12C", "AC50 (µM)": "1", "curve": "falling, single point"}
{"structure": "O=C(NCCN1CCOCC1)C1CCN(c2nc3ccccc3o2)CC1", "AC50 (µM)": "3.162", "curve": "rising, full curve, poor fit"}
{"structure": "COc1ccc2cc3cc(C(=O)NCCN4CCc5ccccc5C4)oc3nc2c1", "AC50 (µM)": "31.62", "curve": "falling, single point"}

2 of the entries, repeated:

structure,AC50 (µM),curve
ClC1=C(Cl)C2(Cl)C3C4CC(C5OC45)C3C1(Cl)C2(Cl)Cl (centres unmarked),25.12,"falling, partial curve"
COc1ccc(C(c2nnnn2Cc2ccccc2)N2CCN(c3ccccc3)CC2)cc1 (centres unmarked),31.62,"falling, single point"